PubChem BioAssay (EPA / NIEHS)
The inconclusive results got no clear call from the source; some entries with a clear call stand among them for comparison. Where the call is inconclusive, the potency comes from a doubtful curve fit. Activity calls are given as the source filed them. The calls were made as follows: active = hit-call score of the fitted dose curve at least 0.9, where 1 is the maximum; inconclusive = response in the unintended direction; inactive = score below 0.9.

Sequences of proteins named here, by UniProt entry; tags and fusion partners are left off. A change or cut given only in a name is not applied to a line headed by its entry.
UniProt P27815: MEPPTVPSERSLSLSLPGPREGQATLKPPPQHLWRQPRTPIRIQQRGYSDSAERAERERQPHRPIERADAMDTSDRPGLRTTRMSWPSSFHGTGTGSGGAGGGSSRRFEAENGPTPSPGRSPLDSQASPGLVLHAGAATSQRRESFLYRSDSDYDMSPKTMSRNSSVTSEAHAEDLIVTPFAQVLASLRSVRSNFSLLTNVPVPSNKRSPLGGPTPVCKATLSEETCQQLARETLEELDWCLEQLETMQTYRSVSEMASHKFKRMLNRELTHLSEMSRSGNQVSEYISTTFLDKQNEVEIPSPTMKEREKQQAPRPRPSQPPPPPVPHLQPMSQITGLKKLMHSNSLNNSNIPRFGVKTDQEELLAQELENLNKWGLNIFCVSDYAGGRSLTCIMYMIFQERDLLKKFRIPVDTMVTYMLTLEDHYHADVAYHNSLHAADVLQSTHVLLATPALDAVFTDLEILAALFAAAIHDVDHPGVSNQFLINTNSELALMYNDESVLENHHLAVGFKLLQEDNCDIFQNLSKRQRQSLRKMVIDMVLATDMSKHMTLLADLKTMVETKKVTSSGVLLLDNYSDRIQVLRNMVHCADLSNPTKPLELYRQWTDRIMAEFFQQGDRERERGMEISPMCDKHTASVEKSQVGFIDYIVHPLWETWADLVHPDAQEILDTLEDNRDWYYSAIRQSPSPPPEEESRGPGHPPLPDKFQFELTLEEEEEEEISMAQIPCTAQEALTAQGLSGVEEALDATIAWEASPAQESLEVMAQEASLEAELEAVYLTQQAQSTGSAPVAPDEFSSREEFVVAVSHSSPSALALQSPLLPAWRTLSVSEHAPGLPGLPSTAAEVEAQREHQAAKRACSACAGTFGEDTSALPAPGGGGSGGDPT

What follows are molecules tested against human Phosphodiesterase 4A1 (PDE4A1), PDE4A (gene 5141) (UniProt P27815) (assay: NVS_ENZ_hPDE4A1: NovaScreen (NVS) Enzymatic Assay for human Phosphodiesterase 4A1 (PDE4A1) (AID 2283191)).
Procedure: NVS_ENZ_hPDE4A1 is a biochemical, single-readout assay that uses extracted gene-proteins in a cell-free assay. Measurements were taken 1 hour after chemical dosing in a 384-well plate.NVS_ENZ_hPDE4A1 is one of one assay component(s) measured or calculated from the NVS_ENZ_hPDE4A1 assay. It is designed to make measurements of enzyme activity, a form of enzyme reporter, as detected with fluorescence intensity signals by Fluorescence and electrophoretic mobility shift technology.Data from the assay component NVS_ENZ_hPDE4A1 was analyzed into 1 assay endpoint. This assay endpoint, NVS_ENZ_hPDE4A1, was analyzed in the positive analysis fitting direction relative to DMSO as the negative control and baseline of activity. Using a type of enzyme reporter, loss-of-signal activity can be used to understand changes in the enzymatic activity as they relate to the gene PDE4A. Furthermore, this assay endpoint can be referred to as a primary readout, because this assay has produced multiple assay endpoints where this one serves a enzymatic activity function. To generalize the intended target to other relatable targets, this assay endpoint is annotated to the esterase intended target family, where the subfamily is phosphodiesterase.
Binding assays used specific radioligands (tritiated, iodinated) with non-radioactive competitive displacement ligands in agonist or antagonist protocols (as indicated) and various reference compounds and inhibitors to titrate specific binding to receptors and transporters. Most enzyme assays (CYPs, kinases, phosphatases, proteases, HDACs) used recombinant protein and specific substrates (fluorescence mostly, some colorimetric and radioactive) and inhibitors, followed by a biochemical separation of substrate and product. All assays for the biochemical HTS were initially run in duplicate at a single concentration (10 uM for CYP450 assays and 25 uM for all others). Assay-chemical combinations meeting a pre-defined threshold (e.g., 30% inhibition and other criteria defined below) were then run in singleton concentration-response format with maximum concentration of 20 uM for CYPs and 50 uM for all others. Each assay was run with positive and negative controls, and concurrent controls on every plate. The follow-up (secondary) screen tested active chemical-pairs in concentration series, as well as a few additional assays not tested in the primary screen, some selected negative inactives, and several cases re-run in the concentration series for confirmatory purposes.
With `COC(=O)NC(=S)Nc1ccccc1NC(=S)NC(=O)OC` the outcome was “inactive”.
In the case of `COc1nn(CSP(=S)(OC)OC)c(=O)s1`, the AC50 is reported as active: 9.55 µM.
In the case of `CCNS(=O)(=O)C(F)(F)C(F)(F)C(F)(F)C(F)(F)C(F)(F)C(F)(F)C(F)(F)C(F)(F)F`, the outcome is reported as “inactive”.
For `CC(C)(C)C(O)C(Oc1ccc(Cl)cc1)n1cncn1` (stereo unspecified), the outcome was “inactive”.
In the case of `O=C(Oc1ccc(Br)cc1)N1CCN2CCC1CC2`, the outcome is reported as “inactive”.
For `N#Cc1cccnc1`, the AC50 was inconclusive: 0.189 µM.
`CC(C)C(=O)OCC(C)(C)C(OC(=O)C(C)C)C(C)C` (stereo unspecified) was tested, and the AC50 was inconclusive: 25 µM.
For `COP(=S)(OC)Oc1ccc([N+](=O)[O-])cc1`, the outcome was “inactive”.
`COc1nc(NC(C)C)nc(NC(C)C)n1` was tested, and the AC50 was active: 13.4 µM.
`CC(C)(c1ccccc1)c1ccc(O)c(C(C)(C)c2ccccc2)c1` was tested, and the AC50 was inconclusive: 0.33 µM.
With `CCOP(=O)(OCC)Oc1nc(Cl)c(Cl)cc1Cl` the AC50 was active: 25 µM.
